PubChem BioAssay AID1259405 | NCATS – 2018

Screen: 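Knock-downs that lift recombinant protein yield in hamster ovary cells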 (primary screen)
Cell system: Chinese hamster CHO-K1 ovary cells with stable secreted eGFP expression
Reagent: single siRNA against mouse genes, 0.8 pmol siRNA per well (2 µl of 400 nM stock)
Timing: 3 days
Read-out: 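Per-well intracellular GFP measured by laser scanning cytometry, plus viability from ATP luminescence, each relative to plate median of non-targeting control wells, in %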
Direction: GFP, % of control: higher = more GFP per well, higher productivity; viability (ATP), % of control: higher = more viable cells (more ATP)
Active means: 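Called active when intracellular GFP, relative to negative control, is at or above 120%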
Shown is an unselected part of about 50,000 deposited reagents. About 4,000 of them (8%) were called active. 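Mouse siRNA library applied to hamster cells; one well for each siRNA.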 Unmarked entries are inactive. Reagents against one gene are numbered here.

no.	target	reagent no.	GFP, % of control	viability (ATP), % of control
1	Foxq1 (forkhead box Q1)	1	74.1	84.2
2	Foxq1 (forkhead box Q1)	2	47.2	45
3	Or4k47 (olfactory receptor family 4 subfamily K member 47)	1	119	95
4	Or4k47 (olfactory receptor family 4 subfamily K member 47)	2	74.2	84.9
5	Or4k47 (olfactory receptor family 4 subfamily K member 47)	3	77.8	85.5
6	Rabgef1 (RAB guanine nucleotide exchange factor (GEF) 1)	1	118	111
7	Rabgef1 (RAB guanine nucleotide exchange factor (GEF) 1)	2	77.8	76.1
8	Rabgef1 (RAB guanine nucleotide exchange factor (GEF) 1)	3	39.8	33.8
9	Or10k2 (olfactory receptor family 10 subfamily K member 2)	1	92.5	58.7
10	Or10k2 (olfactory receptor family 10 subfamily K member 2)	2	71.2	80.5
11	Or10k2 (olfactory receptor family 10 subfamily K member 2)	3	66.3	60.6
12	Cant1 (calcium activated nucleotidase 1)	1	100	116
13	Cant1 (calcium activated nucleotidase 1)	2	56.9	68.2
14	Cant1 (calcium activated nucleotidase 1)	3	69	67.9
15	Krtap5-2 (keratin associated protein 5-2)	1	72	80.2
16	Krtap5-2 (keratin associated protein 5-2)	2	70	62.5
17	Krtap5-2 (keratin associated protein 5-2)	3	75.7	101
18	Snrpd1 (small nuclear ribonucleoprotein D1)	1	120 (active)	115
19	Snrpd1 (small nuclear ribonucleoprotein D1)	2	60.9	48
20	Baz1b (bromodomain adjacent to zinc finger domain, 1B)	1	126 (active)	72.5
21	Baz1b (bromodomain adjacent to zinc finger domain, 1B)	2	50.6	49.5
22	Baz1b (bromodomain adjacent to zinc finger domain, 1B)	3	79.8	68.1
23	Slc13a1	1	64	99.1
24	Slc13a1	2	47.5	55.4
25	Slc13a1	3	75	65.7
26	Dnph1 (2'-deoxynucleoside 5'-phosphate N-hydrolase 1)	1	56	35.1
27	Dnph1 (2'-deoxynucleoside 5'-phosphate N-hydrolase 1)	2	101	81.6
28	Dnph1 (2'-deoxynucleoside 5'-phosphate N-hydrolase 1)	3	143 (active)	124
29	Cert1 (ceramide transporter 1)	1	112	123
30	Cert1 (ceramide transporter 1)	2	78.6	57
31	Cert1 (ceramide transporter 1)	3	76.5	62.4
32	Prmt6 (protein arginine N-methyltransferase 6)	1	102	79.4
33	Prmt6 (protein arginine N-methyltransferase 6)	2	84.7	105
34	Prmt6 (protein arginine N-methyltransferase 6)	3	118	99.2
35	Zfp455 (zinc finger protein 455)	1	45.8	49.9
36	Zfp455 (zinc finger protein 455)	2	80	76.8
37	Zfp455 (zinc finger protein 455)	3	61.6	64.3
38	Baat (bile acid-Coenzyme A: amino acid N-acyltransferase)	1	95.9	98
39	Baat (bile acid-Coenzyme A: amino acid N-acyltransferase)	2	64.2	80
40	Dis3l (DIS3 like exosome 3'-5' exoribonuclease)	1	18.9	11.9
41	Dis3l (DIS3 like exosome 3'-5' exoribonuclease)	2	83.3	91.4
42	Dis3l (DIS3 like exosome 3'-5' exoribonuclease)	3	61.3	55.9
43	Gnrhr (gonadotropin releasing hormone receptor)	1	44.4	54.8
44	Gnrhr (gonadotropin releasing hormone receptor)	2	82.3	93.6
45	Gnrhr (gonadotropin releasing hormone receptor)	3	143 (active)	57
46	Grb2 (growth factor receptor bound protein 2)	1	117	96.6
47	Grb2 (growth factor receptor bound protein 2)	2	75.8	86.1
48	Grb2 (growth factor receptor bound protein 2)	3	75.3	71.9
49	Ppp1r42 (protein phosphatase 1, regulatory subunit 42)	1	65.2	87.9
50	Ppp1r42 (protein phosphatase 1, regulatory subunit 42)	2	66.8	55.8
51	Ppp1r42 (protein phosphatase 1, regulatory subunit 42)	3	68.2	83
52	Tubb3 (tubulin, beta 3 class III)	1	48.9	79
53	Tubb3 (tubulin, beta 3 class III)	2	41.2	70.6
54	Cep170b (centrosomal protein 170B)	1	17.5	18.6
55	Cep170b (centrosomal protein 170B)	2	76.4	71.6
56	Cep170b (centrosomal protein 170B)	3	77.7	91.1
57	Cd276 (CD276 antigen)	1	67.6	78.9
58	Cd276 (CD276 antigen)	2	76.7	83.1
59	Cd276 (CD276 antigen)	3	88.8	98.1
60	Gcnt3 (glucosaminyl (N-acetyl) transferase 3, mucin type)	1	99.8	134
61	Gcnt3 (glucosaminyl (N-acetyl) transferase 3, mucin type)	2	72.9	154
62	Gcnt3 (glucosaminyl (N-acetyl) transferase 3, mucin type)	3	70.2	95.3
63	Rnf112 (ring finger protein 112)	1	99.6	75.8
64	Rnf112 (ring finger protein 112)	2	160 (active)	78.6
65	Rnf112 (ring finger protein 112)	3	143 (active)	95.4
66	Pick1 (protein interacting with C kinase 1)	1	52.1	60.9
67	Pick1 (protein interacting with C kinase 1)	2	80.6	67.8
68	Asb15 (ankyrin repeat and SOCS box-containing 15)	1	82.5	53.1
69	Asb15 (ankyrin repeat and SOCS box-containing 15)	2	64.3	68.1
70	Asb15 (ankyrin repeat and SOCS box-containing 15)	3	74.8	91
71	4933409G03Rik (RIKEN cDNA 4933409G03 gene)	1	85.1	69.5
72	4933409G03Rik (RIKEN cDNA 4933409G03 gene)	2	147 (active)	94.7
73	4933409G03Rik (RIKEN cDNA 4933409G03 gene)	3	174 (active)	153
74	Kazn (kazrin, periplakin interacting protein)	1	32.7	47.1
75	Kazn (kazrin, periplakin interacting protein)	2	69.2	86.7
76	Kazn (kazrin, periplakin interacting protein)	3	90.2	89
77	Ctrc (chymotrypsin C)	1	102	101
78	Ctrc (chymotrypsin C)	2	50.8	59.2
79	Ctrc (chymotrypsin C)	3	45.2	54.3
80	Pea15b-ps (proliferation and apoptosis adaptor protein 15B, pseudogene)	1	92.6	66.6
81	Pea15b-ps (proliferation and apoptosis adaptor protein 15B, pseudogene)	2	59	37.9
82	Pea15b-ps (proliferation and apoptosis adaptor protein 15B, pseudogene)	3	84.6	51.2
83	Rabif (RAB interacting factor)	1	129 (active)	102
84	Rabif (RAB interacting factor)	2	84.4	57.3
85	Rabif (RAB interacting factor)	3	92.3	56
